Reference: publication PMC4676684
These are yes or no findings as the source states them, for the method shown. Binding seen in cells or lysates may run through a third protein. Some results given as binding are weak or reduced against the parent protein; the word gives no strength. One block for each substance: values may come before it.

Protein sequences, listed by entry. Tags and fused reporters are not part of them.
UniProt P78347: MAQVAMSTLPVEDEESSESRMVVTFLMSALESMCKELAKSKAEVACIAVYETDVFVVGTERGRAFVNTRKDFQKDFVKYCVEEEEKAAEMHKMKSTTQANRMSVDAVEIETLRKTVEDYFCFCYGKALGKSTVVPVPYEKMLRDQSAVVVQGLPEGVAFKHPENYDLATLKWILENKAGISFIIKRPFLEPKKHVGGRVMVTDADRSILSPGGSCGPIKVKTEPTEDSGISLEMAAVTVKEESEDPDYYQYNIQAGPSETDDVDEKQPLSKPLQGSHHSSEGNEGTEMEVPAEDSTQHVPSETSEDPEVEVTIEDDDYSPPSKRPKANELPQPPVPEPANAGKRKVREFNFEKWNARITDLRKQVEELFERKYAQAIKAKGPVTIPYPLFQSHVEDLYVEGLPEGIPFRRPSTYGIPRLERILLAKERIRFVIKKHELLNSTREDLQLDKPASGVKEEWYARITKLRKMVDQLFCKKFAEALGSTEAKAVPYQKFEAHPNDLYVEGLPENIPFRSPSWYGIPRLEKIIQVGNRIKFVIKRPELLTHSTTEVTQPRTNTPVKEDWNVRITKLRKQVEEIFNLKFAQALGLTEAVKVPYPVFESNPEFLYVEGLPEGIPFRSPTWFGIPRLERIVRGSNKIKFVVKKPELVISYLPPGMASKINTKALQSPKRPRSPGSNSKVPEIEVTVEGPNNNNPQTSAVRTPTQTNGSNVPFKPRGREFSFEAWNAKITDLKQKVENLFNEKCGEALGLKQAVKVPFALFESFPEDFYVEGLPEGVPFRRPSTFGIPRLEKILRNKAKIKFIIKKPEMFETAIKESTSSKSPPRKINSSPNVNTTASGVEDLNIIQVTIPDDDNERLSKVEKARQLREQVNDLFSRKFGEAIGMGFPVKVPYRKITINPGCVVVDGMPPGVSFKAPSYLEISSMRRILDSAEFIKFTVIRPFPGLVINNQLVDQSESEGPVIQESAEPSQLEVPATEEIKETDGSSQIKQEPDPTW
UniProt Q00987: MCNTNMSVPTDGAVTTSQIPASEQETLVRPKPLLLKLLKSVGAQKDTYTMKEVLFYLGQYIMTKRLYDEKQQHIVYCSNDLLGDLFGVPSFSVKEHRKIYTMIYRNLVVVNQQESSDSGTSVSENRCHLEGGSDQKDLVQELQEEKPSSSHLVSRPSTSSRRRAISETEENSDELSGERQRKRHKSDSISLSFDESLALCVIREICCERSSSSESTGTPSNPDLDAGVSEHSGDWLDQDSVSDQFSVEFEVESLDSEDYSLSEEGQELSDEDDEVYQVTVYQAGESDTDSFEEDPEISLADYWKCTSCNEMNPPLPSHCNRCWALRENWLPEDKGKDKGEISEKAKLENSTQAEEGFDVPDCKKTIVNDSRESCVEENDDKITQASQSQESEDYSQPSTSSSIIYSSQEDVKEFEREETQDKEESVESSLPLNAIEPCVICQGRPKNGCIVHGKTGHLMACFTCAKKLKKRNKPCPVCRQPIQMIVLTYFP

Columns and labels:
[1] = biological target: endogenous TFII-I (H1299 cells) (human (endogenous in H1299)) (UniProt P78347); test: co-IP; endogenous proteins, eight confluent 100-mm dishes of H1299 cells; Triton X-100 lysis buffer; IP 2 h at 4°C with anti-Mdm2 (HDM2-323) or mouse anti-TFII-I, protein G-Sepharose; anti-tubulin α as negative control; Western blot
[2] = biological target: endogenous Mdm2 (H1299 cells) (human (endogenous in H1299)) (UniProt Q00987); test: as above
[3] = biological target: wild-type human Mdm2 (ectopically over-expressed in HEK293T cells) (human) (UniProt Q00987); test: co-IP; HEK293T cells transfected with Mdm2, MG132 15 uM for 4 h; 1% Triton X-100, 150 mM NaCl, 50 mM Tris pH 8.0 lysate; IP with anti-Mdm2 Ab-1 overnight at 4°C, protein G-Sepharose; Western blot for TFII-I

- binding [1]: binds
Substance: endogenous Mdm2 (H1299 cells) (from UniProt Q00987 1-491)

- binding [2]: binds
Substance: endogenous TFII-I (H1299 cells) (from UniProt P78347 1-998)

- binding [3]: binds
Substance: endogenous TFII-I protein (HEK293T cells) (from UniProt P78347 1-998)
